Assay results published in doi:10.1101/2023.07.03.547506.
Read-outs that look alike come from different tables or passages of the source. No constants are given. Whether binding was seen depends on the method and setting. For some of these results: In cells and extracts the contact can be indirect. Some results given as binding are weak or reduced against the parent protein; the word gives no strength.

Chains of the proteins cited; added tags and fusions are not shown. Lines headed by an entry give the natural chain unless they say otherwise; changes in a name come on top. A line that says so, or that is headed by a name, gives the form on record, which may keep a tag or linker.
UniProt Q9BXW6: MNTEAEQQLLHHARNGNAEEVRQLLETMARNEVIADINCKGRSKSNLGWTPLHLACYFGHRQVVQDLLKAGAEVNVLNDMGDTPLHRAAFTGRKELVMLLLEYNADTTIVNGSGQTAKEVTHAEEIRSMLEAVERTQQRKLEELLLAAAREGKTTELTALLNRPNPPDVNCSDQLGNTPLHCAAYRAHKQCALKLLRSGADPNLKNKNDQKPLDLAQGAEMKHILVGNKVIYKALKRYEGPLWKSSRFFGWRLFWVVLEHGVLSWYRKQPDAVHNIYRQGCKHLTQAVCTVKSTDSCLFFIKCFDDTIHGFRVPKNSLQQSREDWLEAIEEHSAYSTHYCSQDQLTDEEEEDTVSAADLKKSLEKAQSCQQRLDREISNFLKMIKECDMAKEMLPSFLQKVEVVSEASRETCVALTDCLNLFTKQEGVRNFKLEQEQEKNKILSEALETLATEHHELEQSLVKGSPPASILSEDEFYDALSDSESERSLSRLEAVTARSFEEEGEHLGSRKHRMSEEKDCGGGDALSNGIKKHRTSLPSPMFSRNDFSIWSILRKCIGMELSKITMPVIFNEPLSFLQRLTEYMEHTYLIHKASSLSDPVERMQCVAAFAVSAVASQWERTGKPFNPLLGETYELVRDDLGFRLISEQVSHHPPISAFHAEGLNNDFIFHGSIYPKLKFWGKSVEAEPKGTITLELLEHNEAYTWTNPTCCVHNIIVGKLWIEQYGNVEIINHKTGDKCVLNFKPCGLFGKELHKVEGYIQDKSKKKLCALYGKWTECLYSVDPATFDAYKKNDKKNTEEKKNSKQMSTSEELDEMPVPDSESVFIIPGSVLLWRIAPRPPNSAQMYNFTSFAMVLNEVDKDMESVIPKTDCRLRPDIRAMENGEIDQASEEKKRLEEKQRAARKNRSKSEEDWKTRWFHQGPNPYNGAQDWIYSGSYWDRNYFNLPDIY
UniProt O95292: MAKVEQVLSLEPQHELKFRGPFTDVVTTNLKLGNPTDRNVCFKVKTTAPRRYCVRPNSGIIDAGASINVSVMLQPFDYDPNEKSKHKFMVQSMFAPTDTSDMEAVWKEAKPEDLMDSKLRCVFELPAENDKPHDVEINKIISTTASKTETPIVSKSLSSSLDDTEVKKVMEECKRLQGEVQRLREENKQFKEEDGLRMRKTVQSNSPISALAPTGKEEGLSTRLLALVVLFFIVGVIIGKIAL
GST-tagged MSP-domain of VAPB, K87D/M89D mutant (O95292, form named): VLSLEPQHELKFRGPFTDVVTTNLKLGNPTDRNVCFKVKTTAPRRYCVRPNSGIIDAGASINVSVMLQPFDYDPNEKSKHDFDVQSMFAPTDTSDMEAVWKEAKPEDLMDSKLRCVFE
UniProt Q8WYP5: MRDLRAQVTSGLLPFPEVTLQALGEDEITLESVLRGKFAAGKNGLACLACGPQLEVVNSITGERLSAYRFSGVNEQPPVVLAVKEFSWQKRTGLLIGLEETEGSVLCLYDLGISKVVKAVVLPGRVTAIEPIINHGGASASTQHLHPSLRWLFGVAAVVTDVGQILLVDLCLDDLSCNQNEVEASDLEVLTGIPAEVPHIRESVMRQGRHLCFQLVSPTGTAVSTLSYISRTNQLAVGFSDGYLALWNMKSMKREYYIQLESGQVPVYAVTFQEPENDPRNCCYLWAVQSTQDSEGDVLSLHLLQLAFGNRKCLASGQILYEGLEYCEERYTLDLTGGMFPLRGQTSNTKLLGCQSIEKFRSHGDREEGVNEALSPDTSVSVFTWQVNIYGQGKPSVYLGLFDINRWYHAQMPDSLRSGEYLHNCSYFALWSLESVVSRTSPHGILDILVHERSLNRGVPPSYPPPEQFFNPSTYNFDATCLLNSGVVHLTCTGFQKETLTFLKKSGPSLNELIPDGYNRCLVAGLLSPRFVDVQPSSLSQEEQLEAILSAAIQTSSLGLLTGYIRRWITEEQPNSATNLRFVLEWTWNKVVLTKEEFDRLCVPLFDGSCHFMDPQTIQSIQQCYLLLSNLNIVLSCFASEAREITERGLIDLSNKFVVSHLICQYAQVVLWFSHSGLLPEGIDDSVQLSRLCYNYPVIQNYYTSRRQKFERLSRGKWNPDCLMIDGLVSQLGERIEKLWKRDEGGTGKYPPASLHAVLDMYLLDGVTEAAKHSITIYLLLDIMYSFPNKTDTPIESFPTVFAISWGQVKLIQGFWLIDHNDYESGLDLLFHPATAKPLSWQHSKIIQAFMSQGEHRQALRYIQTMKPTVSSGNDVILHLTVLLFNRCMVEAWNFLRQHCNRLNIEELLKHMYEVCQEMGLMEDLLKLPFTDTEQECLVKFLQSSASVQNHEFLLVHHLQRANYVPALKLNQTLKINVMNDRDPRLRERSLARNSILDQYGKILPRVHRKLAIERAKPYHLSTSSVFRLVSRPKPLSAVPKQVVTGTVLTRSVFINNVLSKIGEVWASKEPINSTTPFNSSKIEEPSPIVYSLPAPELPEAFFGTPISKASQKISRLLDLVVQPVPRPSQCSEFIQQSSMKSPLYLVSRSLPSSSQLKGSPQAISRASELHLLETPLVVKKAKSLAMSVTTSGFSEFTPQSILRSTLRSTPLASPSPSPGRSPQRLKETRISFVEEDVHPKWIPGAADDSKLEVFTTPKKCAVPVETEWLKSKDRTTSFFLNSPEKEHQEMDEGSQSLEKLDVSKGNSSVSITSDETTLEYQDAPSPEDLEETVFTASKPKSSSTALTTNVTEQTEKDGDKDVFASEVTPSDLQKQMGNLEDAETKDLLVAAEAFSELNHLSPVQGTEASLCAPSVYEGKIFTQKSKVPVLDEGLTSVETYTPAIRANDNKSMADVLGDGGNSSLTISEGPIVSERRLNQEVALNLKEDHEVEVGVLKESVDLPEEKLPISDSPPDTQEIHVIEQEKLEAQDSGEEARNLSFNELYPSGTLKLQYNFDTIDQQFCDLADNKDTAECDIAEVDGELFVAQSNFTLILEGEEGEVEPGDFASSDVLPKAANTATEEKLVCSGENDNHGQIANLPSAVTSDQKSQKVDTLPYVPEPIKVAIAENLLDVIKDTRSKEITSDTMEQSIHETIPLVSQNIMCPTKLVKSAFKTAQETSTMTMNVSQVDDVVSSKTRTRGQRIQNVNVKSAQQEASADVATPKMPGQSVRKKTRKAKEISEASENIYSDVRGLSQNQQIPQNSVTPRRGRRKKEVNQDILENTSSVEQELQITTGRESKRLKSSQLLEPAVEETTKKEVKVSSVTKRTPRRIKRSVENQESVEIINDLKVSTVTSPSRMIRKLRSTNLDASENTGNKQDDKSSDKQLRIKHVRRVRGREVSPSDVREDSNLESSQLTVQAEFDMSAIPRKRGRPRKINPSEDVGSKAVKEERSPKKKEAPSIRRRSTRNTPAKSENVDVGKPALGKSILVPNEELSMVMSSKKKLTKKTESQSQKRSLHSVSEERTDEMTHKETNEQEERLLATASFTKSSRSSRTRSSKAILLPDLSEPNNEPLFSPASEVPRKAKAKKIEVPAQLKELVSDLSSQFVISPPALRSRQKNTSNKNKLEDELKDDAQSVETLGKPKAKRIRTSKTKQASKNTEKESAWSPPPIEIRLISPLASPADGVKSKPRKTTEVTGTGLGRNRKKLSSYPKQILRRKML

Columns and labels:
[1] = target: T1, ORP1-peptide (amino acid residues 469-485) (UniProt Q9BXW6); experiment: pull-down
T1 sequence (peptide, biotin at the N-terminus): SILSEDEFYDALSDSES

[2] = target: GST-tagged wild type MSP-domain of VAPB (UniProt O95292); experiment: pull-down
[3] = target: GFP-VAPB (UniProt O95292); experiment: co-IP
[4] = target: Vesicle-Associated-membrane Protein-associated protein B (VAPB), endogenous (human (endogenous in HeLa)) (UniProt O95292); experiment: co-IP
[5] = target: wild-type full-length HA-VAPB (UniProt O95292); experiment: proximity ligation
[6] = target: GST-tagged MSP-domain of VAPB, K87D/M89D mutant (UniProt O95292); experiment: pull-down
[7] = target: GST-tagged wild type MSP-domain of VAPB (UniProt O95292); experiment: pull-down; remark: listed apart in the source

Row | Substance | binding [1] | binding [2] | binding [3] | binding [4] | binding [5] | binding [6] | binding [7]
1 | GST-tagged wild type MSP-domain of VAPB (from UniProt O95292 7-124) (domain or fragment) | binds |  |  |  |  |  | 
2 | ELYS (embryonic large molecule derived from yolk sac), endogenous full-length nucleoporin (from UniProt Q8WYP5 1-2266) |  | binds weakly | binds | binds | binds | no binding | binds
